Laboratory results: PubChem BioAssay AID587 (National Center for Advancing Translational Sciences (NCATS), 2007)
Among all 59,000 compounds or so, about 35 (0.06%) were called active. This list was built around the results that the source calls inconclusive (neither active nor inactive); the mix of calls is not that of the screen. Rule as the data show it: active = max dye-equivalent concentration above about 10 nM; inconclusive = between about 1.1 nM and that limit; inactive = weaker than that.

Assay: qHTS Assay for Spectroscopic Profiling in Texas Red Spectral Region
Details: Compound fluorescence, Texas Red channel, 547/618 nm; hits give high values
Summary of the method: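 Compound fluorescence was read after 15 min at room temperature in 100 mM Tris, pH 8.0, using 547 nm excitation and 618 nm emission across a concentration series. It was expressed as Texas Red dye-equivalent concentration from an on-plate standard curve.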
For `Cc1ccc2[nH]c(=O)c(CN(CC3CCCO3)C(=O)c3ccncc3)cc2c1` (stereo not given), the max dye-equivalent concentration was inconclusive: 1.3 nM.
With `CCOC(=O)c1cc2n(n1)C(C(F)(F)C(F)(F)F)CC(C)N2` (stereo not given) the max dye-equivalent concentration was inconclusive: 1.4 nM.
For `CN1CCN(C(=O)CCn2nc(-c3ccccc3)c3ccccc3c2=O)CC1`, the max dye-equivalent concentration was inconclusive: 1.1 nM.
In the case of `CCC(C)Sc1nc2c(c(=O)[nH]c(=O)n2C)n1C` (stereo not given), the max dye-equivalent concentration is reported as inconclusive: 1.1 nM.
With `O=C(CSc1ncn[nH]1)N1CCN(c2nnc(-c3ccccc3)c3ccccc23)CC1` the max dye-equivalent concentration was inconclusive: 1.2 nM.
In the case of `COCCn1nnnc1C(c1cc(OC)ccc1OC)N1CCc2ccccc2C1` (stereo not given), the max dye-equivalent concentration is reported as inconclusive: 1.5 nM.
With `CCCCNC(=O)CN1C(=O)C(CC)Oc2ccc(Cl)cc21` (stereo not given) the max dye-equivalent concentration was inconclusive: 1.4 nM.
In the case of `O=C(Nc1ccc2c(c1)nc1n2CCOC1)c1ccco1`, the max dye-equivalent concentration is reported as inconclusive: 1.3 nM.
In the case of `O=C1c2ccccc2C(=O)N1OCCOCCOCCON1C(=O)c2ccccc2C1=O`, the max dye-equivalent concentration is reported as inconclusive: 2.5 nM.
In the case of `CCN(CC)S(=O)(=O)c1ccc(C(=O)OC2CCCCC2CN(C)C)cc1` (stereo not given), the max dye-equivalent concentration is reported as inconclusive: 1.3 nM.
For `CC(NC(=O)c1noc2c1CCCC2)c1ccccc1` (stereo not given), the max dye-equivalent concentration was inconclusive: 1.1 nM.
For `O[C@H]([C@H](O)[C@@H](O)c1nc2ccccc2[nH]1)[C@@H](O)c1nc2ccccc2[nH]1`, the max dye-equivalent concentration was “inactive”.
With `COc1ccc(CNC2CCCCC2C)c(OC)c1` (stereo not given) the max dye-equivalent concentration was inconclusive: 1.1 nM.
With `Cc1cccc(N2C(N)=NC(N)=NC23CCCCC3)c1` the max dye-equivalent concentration was inconclusive: 1.7 nM.
For `O=C(CC1Sc2ccccc2NC1=O)OCC(=O)N1CCc2ccccc21` (stereo not given), the max dye-equivalent concentration was inconclusive: 1.4 nM.
For `Cn1cccc1C(=O)N1CCC2(CC1)CN(Cc1cc(C(F)(F)F)cc(C(F)(F)F)c1)C2`, the max dye-equivalent concentration was “inactive”.
For `CCOc1ccc(NC(=O)CS(=O)CC(=O)NC2CCCc3ccccc32)cc1` (stereo not given), the max dye-equivalent concentration was inconclusive: 1.1 nM.
For `Cc1ccc(-n2nc(C(=O)N3CCN(C)CC3)c3c4ccccc4n(C)c3c2=O)cc1`, the max dye-equivalent concentration was inconclusive: 1.2 nM.
With `CCOCCCNc1ncc2c(n1)CC(c1ccc(C)cc1)CC2=O` (stereo not given) the max dye-equivalent concentration was inconclusive: 1.1 nM.
In the case of `CCN(CC)Cc1cc2ccccc2c2c1COC2`, the max dye-equivalent concentration is reported as inconclusive: 1.2 nM.
With `CCC(C)NC(=O)N[C@@H](CCSC)C(=O)O` (stereo not given in full) the max dye-equivalent concentration was inconclusive: 1.1 nM.
For `OC1(c2cccc(C(F)(F)F)c2)CCN(c2ccc(-c3ccccc3)nn2)CC1`, the max dye-equivalent concentration was inconclusive: 1.2 nM.
With `N#Cc1cccc(-c2ccc3ncnc(N4CCNCC4)c3c2)c1` the max dye-equivalent concentration was inconclusive: 1.2 nM.
For `O=C(CN1CCC(C(=O)c2ccc3c(c2)OCCO3)CC1)NC1CCCC1`, the max dye-equivalent concentration was inconclusive: 1.1 nM.
In the case of `Cn1c(-c2ccc3c(c2)OCO3)cnc1NCc1cccc(Cl)c1`, the max dye-equivalent concentration is reported as inconclusive: 2.2 nM.
In the case of `CC(C)NC(=O)C1CCN(Cc2cnn(-c3ccccc3)c2-n2cccc2)CC1`, the max dye-equivalent concentration is reported as inconclusive: 1.7 nM.
With `Cc1cccc2cc(C#N)c(N3CCCC3)nc12` the max dye-equivalent concentration was inconclusive: 1.9 nM.
For `CCNC(=O)c1nc[nH]c1C(=O)NCC`, the max dye-equivalent concentration was inconclusive: 1.8 nM.
For `O=C(c1ccccc1)c1ccc2n1CC[C@H]2C(=O)O`, the max dye-equivalent concentration was “inactive”.
For `CCOC(=O)c1c(-c2ccc(C)o2)csc1NC(=O)CSc1nncs1`, the max dye-equivalent concentration was inconclusive: 1.1 nM.
With `O=C1NC(=O)[C@@H]2C3c4ccccc4C=CN3[C@H](C(=O)c3cccs3)[C@H]12` (stereo not given in full) the max dye-equivalent concentration was “inactive”.
In the case of `COc1ccc(C2C(C(N)=O)=C(C)Nc3ncnn32)cc1` (stereo not given), the max dye-equivalent concentration is reported as inconclusive: 4.1 nM.
In the case of `CCOc1ccc(NC2=NCCC(=O)N2Cc2cccs2)cc1`, the max dye-equivalent concentration is reported as inconclusive: 1.6 nM.
In the case of `Cc1nc2c(C(=O)N3CCN(c4ccccn4)CC3)cnn2c(C)c1Cc1cccc(Cl)c1`, the max dye-equivalent concentration is reported as inconclusive: 1.4 nM.
With `CCOc1ccc(OCC)c(NC(=O)CN2CCN(c3cccc(C)c3)CC2)c1` the max dye-equivalent concentration was inconclusive: 1.3 nM.
With `C=CCn1c(SCC(=O)Nc2cc(C)c(Cl)cc2OC)nnc1-c1ccco1` the max dye-equivalent concentration was inconclusive: 1.9 nM.
For `O=c1c(-c2ccc(Cl)cc2)nc2cnc(N3CCNCC3)nc2n1Cc1cccs1`, the max dye-equivalent concentration was “inactive”.
With `CCn1ncc(CN2CCN(C(=O)Nc3ccccc3C(=O)OC)CC2)c1C` the max dye-equivalent concentration was inconclusive: 1.1 nM.
With `O=C(NCC1CCCO1)C1CCN(c2ccc(S(=O)(=O)N3CCCC3)cc2)CC1` (stereo not given) the max dye-equivalent concentration was inconclusive: 1.2 nM.
For `CCCc1[nH]nc2c1C(/C(C)=C/c1ccccc1)C(C#N)=C(N)O2` (stereo not given), the max dye-equivalent concentration was inconclusive: 1.2 nM.
For `COC(=O)c1c(C#N)c(N)nc2c1CCC2`, the max dye-equivalent concentration was inconclusive: 2 nM.
For `CCOc1cc(S(=O)(=O)NCCN2CCOCC2)c(C)cc1C`, the max dye-equivalent concentration was inconclusive: 1.3 nM.
For `CC1(C)CC(=O)C=C(Nc2ccc(Br)cn2)C1`, the max dye-equivalent concentration was inconclusive: 1.1 nM.
In the case of `O=C(COc1ccccc1F)NC1CC1`, the max dye-equivalent concentration is reported as inconclusive: 1.1 nM.
In the case of `CC1CN(c2nc3c(c(=O)n(Cc4ccc(Cl)cc4)c(=O)n3C)n2C)CC(C)O1` (stereo not given), the max dye-equivalent concentration is reported as inconclusive: 1.5 nM.
For `CCn1c(=N)n(CC(O)COc2cccc(C)c2)c2ccccc21` (stereo not given), the max dye-equivalent concentration was inconclusive: 1.5 nM.
With `O=C(CSc1nnc(-c2cccs2)o1)N1CCc2ccccc21` the max dye-equivalent concentration was inconclusive: 1.1 nM.
For `Cc1ccc(C)c(NC(=O)CSc2nnc(-c3ccccc3)n2N)c1`, the max dye-equivalent concentration was inconclusive: 1.4 nM.
In the case of `CCC(C)(C)n1nnnc1C(c1ccc(OC)c(OC)c1)N1CCN(c2cccc(OC)c2)CC1` (stereo not given), the max dye-equivalent concentration is reported as inconclusive: 1.3 nM.
With `Cc1cn(-c2ccc(Br)cc2)[nH]c1=O` the max dye-equivalent concentration was inconclusive: 1.2 nM.
For `CC1CCCCC1N1CCN(C(=O)c2cccc(F)c2)CC1` (stereo not given), the max dye-equivalent concentration was inconclusive: 1.4 nM.
In the case of `O=C(CSc1nnc(-c2ccc(S(=O)(=O)N3CCCC3)cc2)n1CC1CCCO1)NC1CC1` (stereo not given), the max dye-equivalent concentration is reported as inconclusive: 1.5 nM.
For `CCOC(=O)c1[nH]c(C)c(C(=O)N(C)C)c1C`, the max dye-equivalent concentration was inconclusive: 1.3 nM.
For `CCCCn1c(SCC(=O)Nc2cc(NC(=O)c3ccco3)ccc2C)nc2ccccc2c1=O`, the max dye-equivalent concentration was inconclusive: 1.3 nM.
In the case of `COc1ccc(CCC(=O)N2CCc3ccccc32)cc1`, the max dye-equivalent concentration is reported as inconclusive: 1.3 nM.
